PubChem BioAssay AID504784 – Drosophila RNAi Screening Center – 2011

Purpose: 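Search for regulators of lipid droplet storage in oleate-fed fly cells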 (primary screen)
Cell system: Drosophila Kc167 embryonic cells
Reagent: long dsRNA against Drosophila genes, about 250 ng dsRNA per well
Timing: 4 days
Challenge: cells fed 400 µM oleic acid bound to BSA
Measured: 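Microscope images give a droplet-to-nucleus area ratio, taken as log and converted to a screen-wide B-score; higher values mean greater lipid storage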
Direction: droplet/nuclear area B-score: higher = more stored lipid (overstorage)
The screen tested about 17,000 reagents; below is a random part of those with a known target gene and a result. 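Each column is one replicate's B-score; the combined score over replicates was not deposited, so single values may mislead.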 Names joined by + are all predicted targets of the reagent. No sequences are given here.

gene | DRSC id | droplet/nuclear area B-score, replicate 1 | droplet/nuclear area B-score, replicate 2 | droplet/nuclear area B-score, replicate 3
Dcp-1 (GeneID 37729) | DRSC04609 | 0.694 | -0.634 | –
esc (GeneID 34595) | DRSC03529 | 0.232 | -0.15 | –
Nep5 (GeneID 43255) | DRSC16004 | -0.00678 | – | –
CG13148 (GeneID 36398) | DRSC06275 | 3.27 | -0.672 | –
EloC (GeneID 37237) | DRSC07423 | -0.449 | -1.81 | –
CG8839 (GeneID 36340) | DRSC07285 | -0.357 | -0.41 | –
ec (GeneID 31339) | DRSC18658 | -0.759 | -2.91 | –
Pglym87 (GeneID 46246) | DRSC15252 | -0.806 | -0.126 | –
Or24a (GeneID 33623) | DRSC00768 | 0.447 | 1.05 | –
CG4408 (GeneID 42762) | DRSC15574 | -3.89 | 0.805 | –
CG31735 (GeneID 318922) | DRSC01518 | -0.0283 | -0.288 | –
Spn42Dd (GeneID 49808) | DRSC05024 | -0.232 | 0.843 | –
Spn42Dd (GeneID 49808) | DRSC22060 | 0.0761 | -0.207 | –
CG14285 (GeneID 42281) | DRSC14766 | -0.271 | 0.0972 | –
CG18249 (GeneID 40964) | DRSC15318 | -2.97 | -0.00171 | –
CG14907 + Mettl4 | DRSC15026 | -1.16 | 0.00648 | –
CG14907 + Mettl4 | DRSC15027 | 0.149 | -0.312 | –
CG13603 (GeneID 42838) | DRSC14606 | -2.95 | 2.68 | –
Urod (GeneID 35986) | DRSC07569 | -0.0659 | 0.603 | –
Nepl13 (GeneID 42699) | DRSC15632 | 0.483 | -1.22 | –
M7BP (GeneID 35698) | DRSC05932 | 1.55 | 0.71 | –
CG18870 (GeneID 59218) | DRSC04313 | 1.55 | 0.643 | –
CG14628 (GeneID 31057) | DRSC18626 | -0.958 | -0.662 | –
ppk26 (GeneID 38835) | DRSC10991 | -0.251 | -1.26 | –
CG34458 (GeneID 5740868) | DRSC06925 | 0.0197 | 0.0864 | –
CG5151 (GeneID 39772) | DRSC10487 | 4.64 | 6.71 | –
CG5151 (GeneID 39772) | DRSC23220 | -0.006 | -0.956 | –
TwdlE (GeneID 34075) | DRSC02392 | -0.434 | -0.737 | –
CG8149 (GeneID 41137) | DRSC16391 | -0.223 | 0.22 | –
CG13297 (GeneID 38711) | DRSC09971 | -1.76 | -0.263 | –
cu (GeneID 41339) | DRSC15643 | 0.0823 | 0.403 | –
cu (GeneID 41339) | DRSC15648 | -0.63 | 0.189 | –
orion (GeneID 31712) | DRSC18213 | 0.217 | -2.03 | –
orion (GeneID 31712) | DRSC18214 | -0.232 | 0.408 | –
Fsn (GeneID 36460) | DRSC06875 | -0.415 | 0.896 | –
Rpp21 (GeneID 318857) | DRSC22480 | 0.272 | 2.43 | –
east (GeneID 46006) | DRSC18770 | 0.698 | 1.62 | –
Rbp9 (GeneID 33498) | DRSC00416 | -0.42 | 4.23 | –
Rbp9 (GeneID 33498) | DRSC00779 | 1.32 | 2.61 | –
CG15056 (GeneID 32824) | DRSC19630 | 0.383 | 1.89 | –
CG33958 (GeneID 37088) | DRSC06472 | -3.03 | -0.4 | –
CG33958 (GeneID 37088) | DRSC06944 | -1.6 | -0.804 | –
tal-1A + tal-2A + tal-AA + 1 more | DRSC12992 | 0.182 | -0.419 | –
E(spl)m5-HLH (GeneID 43158) | DRSC16695 | -1 | -2.54 | –
CG13063 (GeneID 39797) | DRSC09946 | -1.66 | -1.38 | –
CG18542 + CG32939 | DRSC15342 | -0.0532 | 10.2 | –
Atat (GeneID 39086) | DRSC10392 | 0.09 | -0.848 | –
Rab4 + CG42239 | DRSC05667 | -0.617 | 0.903 | –
CG30114 (GeneID 246465) | DRSC05707 | -0.553 | -1.58 | –
ball (GeneID 43228) | DRSC14145 | -0.0493 | -0.463 | –
CG30270 (GeneID 251324) | DRSC22890 | -2.16 | 0.981 | –
nmd (GeneID 44021) | DRSC02856 | 1.21 | -1.19 | –

Next part, starting with the last 3 of the part before.
gene | DRSC id | droplet/nuclear area B-score, replicate 1 | droplet/nuclear area B-score, replicate 2 | droplet/nuclear area B-score, replicate 3
ball (GeneID 43228) | DRSC14145 | -0.0493 | -0.463 | –
CG30270 (GeneID 251324) | DRSC22890 | -2.16 | 0.981 | –
nmd (GeneID 44021) | DRSC02856 | 1.21 | -1.19 | –
Prosalpha7 (GeneID 36018) | DRSC07516 | 1.27 | -0.167 | –
CG6813 (GeneID 41396) | DRSC16122 | -2.39 | 2.18 | –
Acox3 (GeneID 33898) | DRSC03251 | 0.346 | -0.256 | –
armi (GeneID 38427) | DRSC08193 | -0.442 | 0.0718 | –
CG11370 (GeneID 40486) | DRSC11653 | -0.102 | 1.36 | –
CG3594 (GeneID 37964) | DRSC04393 | 1.21 | 0.898 | –
CG3594 (GeneID 37964) | DRSC21959 | 0.00197 | -0.46 | –
Cdk5alpha (GeneID 34385) | DRSC03290 | -1.09 | 0.243 | –
Cdk5alpha (GeneID 34385) | DRSC23301 | 1.79 | 0.806 | –
CG13766 (GeneID 33922) | DRSC02271 | 1.42 | 0.803 | –
CG30122 (GeneID 37146) | DRSC06776 | 1.17 | 0.982 | –
CG30122 (GeneID 37146) | DRSC06935 | 0.781 | 0.727 | –
Atg10 (GeneID 50253) | DRSC06172 | 0.426 | 0.684 | –
LeuRS (GeneID 326262) | DRSC00581 | 0.686 | 0.0288 | –
if (GeneID 32661) | DRSC20341 | -0.035 | 0.993 | –
Or59c (GeneID 37716) | DRSC04633 | 0.464 | 0.895 | –
CG13506 (GeneID 37556) | DRSC04150 | -0.266 | 2.44 | –
elm (GeneID 40695) | DRSC12309 | -0.0973 | 4.19 | –
Est-Q (GeneID 40381) | DRSC11835 | 0.142 | 0.209 | -0.0805
CG16952 (GeneID 32546) | DRSC19759 | -1.35 | 0.00109 | –
grim (GeneID 40014) | DRSC11352 | 0.244 | 2.28 | –
grim (GeneID 40014) | DRSC23169 | 0.548 | -0.674 | –
Or71a (GeneID 39641) | DRSC11244 | -0.179 | 1.36 | –
CG15873 (GeneID 37898) | DRSC04277 | 1.56 | 0.542 | –
edin (GeneID 317900) | DRSC09488 | 1.6 | -0.315 | –
Mnat9 (GeneID 43726) | DRSC14325 | -0.429 | -0.0477 | –
CG14131 (GeneID 39328) | DRSC10135 | 0.416 | 2.39 | –
Obp56i (GeneID 246667) | DRSC05812 | 0.758 | 0.776 | –
CG32099 (GeneID 317852) | DRSC21352 | -0.229 | -1.03 | –
CanA1 (GeneID 43670) | DRSC16600 | -0.839 | 1.96 | –
PSMG1 (GeneID 40719) | DRSC12297 | -0.092 | -0.0164 | –
